These are yes or no findings as the source states them, for the method shown. Binding seen in cells or lysates may run through a third protein. Binding can be weak; no strength is given.

Chains of the proteins cited; added tags and fusions are not shown. Lines headed by an entry give the natural chain unless they say otherwise; changes in a name come on top.
UniProt Q8C9B9: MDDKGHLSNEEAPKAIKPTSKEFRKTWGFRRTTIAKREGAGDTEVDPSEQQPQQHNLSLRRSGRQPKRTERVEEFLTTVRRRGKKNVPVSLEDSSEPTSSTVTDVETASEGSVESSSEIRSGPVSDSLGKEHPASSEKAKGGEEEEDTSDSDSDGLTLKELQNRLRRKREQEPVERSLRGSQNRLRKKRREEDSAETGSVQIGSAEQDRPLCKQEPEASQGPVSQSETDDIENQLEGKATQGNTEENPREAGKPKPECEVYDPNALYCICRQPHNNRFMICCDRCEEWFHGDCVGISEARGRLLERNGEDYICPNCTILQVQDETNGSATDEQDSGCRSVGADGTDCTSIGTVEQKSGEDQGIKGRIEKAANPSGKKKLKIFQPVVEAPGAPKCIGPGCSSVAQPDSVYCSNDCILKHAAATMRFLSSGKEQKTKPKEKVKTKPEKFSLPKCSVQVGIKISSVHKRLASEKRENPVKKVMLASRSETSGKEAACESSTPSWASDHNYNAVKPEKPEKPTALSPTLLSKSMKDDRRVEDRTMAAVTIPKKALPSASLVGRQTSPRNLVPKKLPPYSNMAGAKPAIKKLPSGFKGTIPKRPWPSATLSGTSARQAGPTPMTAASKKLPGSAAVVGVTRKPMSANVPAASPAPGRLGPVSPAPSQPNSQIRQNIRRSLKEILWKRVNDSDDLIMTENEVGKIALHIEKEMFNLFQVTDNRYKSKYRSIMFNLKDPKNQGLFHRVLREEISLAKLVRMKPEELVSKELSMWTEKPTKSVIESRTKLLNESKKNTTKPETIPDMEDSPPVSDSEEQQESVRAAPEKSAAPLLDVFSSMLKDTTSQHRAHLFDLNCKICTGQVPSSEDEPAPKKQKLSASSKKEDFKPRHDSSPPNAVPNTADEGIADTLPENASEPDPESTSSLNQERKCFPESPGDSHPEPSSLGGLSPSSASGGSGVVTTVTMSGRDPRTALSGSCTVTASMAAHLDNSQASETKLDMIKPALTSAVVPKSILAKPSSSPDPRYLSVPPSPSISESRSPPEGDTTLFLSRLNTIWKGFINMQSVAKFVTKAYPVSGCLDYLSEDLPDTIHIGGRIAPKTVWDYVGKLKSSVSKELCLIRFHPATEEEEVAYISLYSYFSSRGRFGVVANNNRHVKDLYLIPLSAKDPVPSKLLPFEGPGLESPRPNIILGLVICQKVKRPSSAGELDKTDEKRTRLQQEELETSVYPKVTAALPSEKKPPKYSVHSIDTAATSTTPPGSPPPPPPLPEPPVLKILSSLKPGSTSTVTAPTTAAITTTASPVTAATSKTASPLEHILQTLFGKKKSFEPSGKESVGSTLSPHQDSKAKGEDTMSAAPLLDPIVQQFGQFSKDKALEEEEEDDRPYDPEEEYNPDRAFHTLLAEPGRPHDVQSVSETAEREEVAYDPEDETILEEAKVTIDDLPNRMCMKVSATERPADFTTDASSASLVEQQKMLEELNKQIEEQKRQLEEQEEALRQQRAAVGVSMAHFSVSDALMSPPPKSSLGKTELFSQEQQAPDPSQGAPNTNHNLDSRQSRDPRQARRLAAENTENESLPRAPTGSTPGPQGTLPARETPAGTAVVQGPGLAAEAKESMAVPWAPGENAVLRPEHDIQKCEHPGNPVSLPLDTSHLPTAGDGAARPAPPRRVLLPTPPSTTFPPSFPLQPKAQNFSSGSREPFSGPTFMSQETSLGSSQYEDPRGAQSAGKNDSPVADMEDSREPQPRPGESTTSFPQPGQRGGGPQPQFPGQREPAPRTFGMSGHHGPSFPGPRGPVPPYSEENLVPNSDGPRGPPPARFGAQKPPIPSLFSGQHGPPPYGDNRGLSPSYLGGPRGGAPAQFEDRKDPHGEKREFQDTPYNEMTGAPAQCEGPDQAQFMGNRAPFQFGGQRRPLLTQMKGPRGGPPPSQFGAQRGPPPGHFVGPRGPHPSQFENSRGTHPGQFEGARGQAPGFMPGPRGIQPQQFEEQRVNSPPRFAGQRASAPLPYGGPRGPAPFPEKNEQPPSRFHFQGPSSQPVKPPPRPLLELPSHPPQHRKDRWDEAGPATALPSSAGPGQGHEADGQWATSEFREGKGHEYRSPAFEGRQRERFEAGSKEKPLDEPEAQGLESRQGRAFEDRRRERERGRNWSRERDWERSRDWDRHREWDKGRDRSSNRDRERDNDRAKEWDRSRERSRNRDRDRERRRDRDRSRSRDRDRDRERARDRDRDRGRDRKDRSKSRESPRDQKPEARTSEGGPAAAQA
UniProt P11103: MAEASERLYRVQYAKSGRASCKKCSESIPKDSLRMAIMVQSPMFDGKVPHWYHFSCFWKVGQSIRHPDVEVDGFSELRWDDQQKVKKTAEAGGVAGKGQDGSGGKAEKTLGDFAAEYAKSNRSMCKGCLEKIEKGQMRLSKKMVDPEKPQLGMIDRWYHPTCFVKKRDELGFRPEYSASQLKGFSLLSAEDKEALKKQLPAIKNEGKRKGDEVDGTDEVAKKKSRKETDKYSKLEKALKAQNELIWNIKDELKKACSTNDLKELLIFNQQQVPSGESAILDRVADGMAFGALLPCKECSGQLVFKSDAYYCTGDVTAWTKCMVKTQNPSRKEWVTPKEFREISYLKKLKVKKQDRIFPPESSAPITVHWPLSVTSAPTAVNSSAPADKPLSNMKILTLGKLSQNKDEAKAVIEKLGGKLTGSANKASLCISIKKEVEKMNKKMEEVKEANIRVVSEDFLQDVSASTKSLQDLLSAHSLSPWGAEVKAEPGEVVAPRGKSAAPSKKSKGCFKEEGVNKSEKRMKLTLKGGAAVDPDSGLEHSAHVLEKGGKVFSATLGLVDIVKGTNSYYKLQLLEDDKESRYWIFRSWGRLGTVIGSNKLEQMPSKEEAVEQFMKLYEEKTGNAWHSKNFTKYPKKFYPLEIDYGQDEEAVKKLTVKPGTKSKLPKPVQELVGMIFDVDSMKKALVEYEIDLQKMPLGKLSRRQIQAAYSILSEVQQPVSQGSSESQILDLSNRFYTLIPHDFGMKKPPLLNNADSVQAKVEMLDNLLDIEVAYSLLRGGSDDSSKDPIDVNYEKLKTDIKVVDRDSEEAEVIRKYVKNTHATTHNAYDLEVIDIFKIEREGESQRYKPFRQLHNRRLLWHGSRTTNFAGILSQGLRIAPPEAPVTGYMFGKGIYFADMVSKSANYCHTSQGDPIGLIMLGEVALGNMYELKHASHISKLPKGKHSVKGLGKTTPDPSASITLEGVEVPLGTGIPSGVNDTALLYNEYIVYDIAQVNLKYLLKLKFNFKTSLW

Experimental findings from paper PMC10814579 are described below.

The assay deals with modified HA-DIDO-NT construct with an inactivating mutation in the PHD domain (mouse) (UniProt Q8C9B9). The assay can be described thus: co-IP; lysates of transiently transfected NIH-3T3 cells (untreated, Olaparib- or Camptothecin-treated; RNase A added to lysates in one experiment) immunoprecipitated with anti-HA antibody (anti-DIDO3 CT-specific antibody for ∆NT and SPCT), Protein A/G magnetic beads, Western blot for endogenous PARP1 and DHX9. For orientation: In western blotting, separated proteins are transferred to a membrane and probed.

PARP1 (from UniProt P11103 1-1013): the binding entry is “binds”.
